# From the supplement of paper PMC10032668
# Sequences of proteins named here, by UniProt entry; tags and fusion partners are left off.
# DPYSL3, Q14195, UniProt Q14195, whole entry: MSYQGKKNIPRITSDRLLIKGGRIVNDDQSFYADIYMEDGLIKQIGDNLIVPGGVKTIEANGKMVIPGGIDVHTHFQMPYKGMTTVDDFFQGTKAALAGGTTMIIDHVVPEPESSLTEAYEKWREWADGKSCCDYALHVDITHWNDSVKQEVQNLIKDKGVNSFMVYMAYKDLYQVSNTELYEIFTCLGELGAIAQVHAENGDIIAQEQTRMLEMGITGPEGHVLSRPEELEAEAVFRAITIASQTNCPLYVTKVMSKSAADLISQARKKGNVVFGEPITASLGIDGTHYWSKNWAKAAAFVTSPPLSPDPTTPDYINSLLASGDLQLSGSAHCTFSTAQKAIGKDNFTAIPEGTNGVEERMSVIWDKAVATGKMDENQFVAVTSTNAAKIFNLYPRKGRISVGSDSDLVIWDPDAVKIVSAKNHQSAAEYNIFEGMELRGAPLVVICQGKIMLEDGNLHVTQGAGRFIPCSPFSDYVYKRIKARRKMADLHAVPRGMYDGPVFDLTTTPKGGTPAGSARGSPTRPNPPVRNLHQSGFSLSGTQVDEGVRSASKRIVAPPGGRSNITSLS
# NUTF2, P61970, UniProt P61970, whole entry: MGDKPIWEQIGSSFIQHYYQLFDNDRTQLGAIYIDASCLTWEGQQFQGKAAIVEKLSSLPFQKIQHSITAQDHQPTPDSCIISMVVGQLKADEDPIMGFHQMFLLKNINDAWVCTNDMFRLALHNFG
# CDC23, Q9UJX2, UniProt Q9UJX2, whole entry: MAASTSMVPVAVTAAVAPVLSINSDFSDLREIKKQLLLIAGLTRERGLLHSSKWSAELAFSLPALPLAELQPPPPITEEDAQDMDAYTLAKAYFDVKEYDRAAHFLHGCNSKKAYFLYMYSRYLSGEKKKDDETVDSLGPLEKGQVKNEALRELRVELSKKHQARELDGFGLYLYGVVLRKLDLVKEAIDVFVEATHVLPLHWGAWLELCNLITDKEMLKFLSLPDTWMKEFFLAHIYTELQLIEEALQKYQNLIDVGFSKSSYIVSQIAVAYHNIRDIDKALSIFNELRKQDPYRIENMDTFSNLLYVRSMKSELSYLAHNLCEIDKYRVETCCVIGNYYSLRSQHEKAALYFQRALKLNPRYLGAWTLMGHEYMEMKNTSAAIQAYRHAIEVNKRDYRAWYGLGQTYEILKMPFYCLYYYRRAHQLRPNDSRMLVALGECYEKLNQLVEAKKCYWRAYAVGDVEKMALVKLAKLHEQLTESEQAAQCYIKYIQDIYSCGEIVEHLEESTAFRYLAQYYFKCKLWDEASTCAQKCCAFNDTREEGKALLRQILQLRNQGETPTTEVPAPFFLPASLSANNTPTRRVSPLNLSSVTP
# FABP5, Q01469, UniProt Q01469, whole entry: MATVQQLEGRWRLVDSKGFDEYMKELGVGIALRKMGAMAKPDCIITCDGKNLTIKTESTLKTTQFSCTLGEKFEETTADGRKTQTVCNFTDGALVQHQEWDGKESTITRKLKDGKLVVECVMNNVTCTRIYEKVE
# DYNLL1, P63167, UniProt P63167, whole entry: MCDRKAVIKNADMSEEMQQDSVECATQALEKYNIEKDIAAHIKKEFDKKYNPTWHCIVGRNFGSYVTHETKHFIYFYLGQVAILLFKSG
# MCM2, P49736, UniProt P49736, whole entry: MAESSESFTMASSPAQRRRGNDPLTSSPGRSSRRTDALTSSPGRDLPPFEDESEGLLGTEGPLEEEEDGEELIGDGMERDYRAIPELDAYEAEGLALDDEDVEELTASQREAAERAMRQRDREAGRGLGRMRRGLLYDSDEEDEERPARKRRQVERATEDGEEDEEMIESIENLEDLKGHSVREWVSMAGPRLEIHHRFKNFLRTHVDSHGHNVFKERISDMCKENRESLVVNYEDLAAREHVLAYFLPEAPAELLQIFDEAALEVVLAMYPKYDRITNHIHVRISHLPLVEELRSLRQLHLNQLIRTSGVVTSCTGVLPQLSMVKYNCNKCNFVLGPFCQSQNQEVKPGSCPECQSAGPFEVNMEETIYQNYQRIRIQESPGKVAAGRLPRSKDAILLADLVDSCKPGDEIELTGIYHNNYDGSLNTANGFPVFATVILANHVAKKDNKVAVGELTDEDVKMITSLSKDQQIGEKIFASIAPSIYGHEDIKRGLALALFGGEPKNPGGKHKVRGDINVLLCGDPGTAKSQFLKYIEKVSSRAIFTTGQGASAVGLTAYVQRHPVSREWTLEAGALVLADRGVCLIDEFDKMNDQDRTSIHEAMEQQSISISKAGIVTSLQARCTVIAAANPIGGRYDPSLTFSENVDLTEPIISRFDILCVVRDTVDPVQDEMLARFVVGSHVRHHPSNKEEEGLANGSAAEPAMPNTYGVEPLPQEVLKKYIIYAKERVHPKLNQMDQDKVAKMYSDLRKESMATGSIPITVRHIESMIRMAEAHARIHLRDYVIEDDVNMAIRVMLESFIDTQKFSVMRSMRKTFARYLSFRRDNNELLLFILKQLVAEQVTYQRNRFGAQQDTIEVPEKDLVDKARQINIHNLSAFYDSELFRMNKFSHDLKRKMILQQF
# DMD, P11532, UniProt P11532, whole entry: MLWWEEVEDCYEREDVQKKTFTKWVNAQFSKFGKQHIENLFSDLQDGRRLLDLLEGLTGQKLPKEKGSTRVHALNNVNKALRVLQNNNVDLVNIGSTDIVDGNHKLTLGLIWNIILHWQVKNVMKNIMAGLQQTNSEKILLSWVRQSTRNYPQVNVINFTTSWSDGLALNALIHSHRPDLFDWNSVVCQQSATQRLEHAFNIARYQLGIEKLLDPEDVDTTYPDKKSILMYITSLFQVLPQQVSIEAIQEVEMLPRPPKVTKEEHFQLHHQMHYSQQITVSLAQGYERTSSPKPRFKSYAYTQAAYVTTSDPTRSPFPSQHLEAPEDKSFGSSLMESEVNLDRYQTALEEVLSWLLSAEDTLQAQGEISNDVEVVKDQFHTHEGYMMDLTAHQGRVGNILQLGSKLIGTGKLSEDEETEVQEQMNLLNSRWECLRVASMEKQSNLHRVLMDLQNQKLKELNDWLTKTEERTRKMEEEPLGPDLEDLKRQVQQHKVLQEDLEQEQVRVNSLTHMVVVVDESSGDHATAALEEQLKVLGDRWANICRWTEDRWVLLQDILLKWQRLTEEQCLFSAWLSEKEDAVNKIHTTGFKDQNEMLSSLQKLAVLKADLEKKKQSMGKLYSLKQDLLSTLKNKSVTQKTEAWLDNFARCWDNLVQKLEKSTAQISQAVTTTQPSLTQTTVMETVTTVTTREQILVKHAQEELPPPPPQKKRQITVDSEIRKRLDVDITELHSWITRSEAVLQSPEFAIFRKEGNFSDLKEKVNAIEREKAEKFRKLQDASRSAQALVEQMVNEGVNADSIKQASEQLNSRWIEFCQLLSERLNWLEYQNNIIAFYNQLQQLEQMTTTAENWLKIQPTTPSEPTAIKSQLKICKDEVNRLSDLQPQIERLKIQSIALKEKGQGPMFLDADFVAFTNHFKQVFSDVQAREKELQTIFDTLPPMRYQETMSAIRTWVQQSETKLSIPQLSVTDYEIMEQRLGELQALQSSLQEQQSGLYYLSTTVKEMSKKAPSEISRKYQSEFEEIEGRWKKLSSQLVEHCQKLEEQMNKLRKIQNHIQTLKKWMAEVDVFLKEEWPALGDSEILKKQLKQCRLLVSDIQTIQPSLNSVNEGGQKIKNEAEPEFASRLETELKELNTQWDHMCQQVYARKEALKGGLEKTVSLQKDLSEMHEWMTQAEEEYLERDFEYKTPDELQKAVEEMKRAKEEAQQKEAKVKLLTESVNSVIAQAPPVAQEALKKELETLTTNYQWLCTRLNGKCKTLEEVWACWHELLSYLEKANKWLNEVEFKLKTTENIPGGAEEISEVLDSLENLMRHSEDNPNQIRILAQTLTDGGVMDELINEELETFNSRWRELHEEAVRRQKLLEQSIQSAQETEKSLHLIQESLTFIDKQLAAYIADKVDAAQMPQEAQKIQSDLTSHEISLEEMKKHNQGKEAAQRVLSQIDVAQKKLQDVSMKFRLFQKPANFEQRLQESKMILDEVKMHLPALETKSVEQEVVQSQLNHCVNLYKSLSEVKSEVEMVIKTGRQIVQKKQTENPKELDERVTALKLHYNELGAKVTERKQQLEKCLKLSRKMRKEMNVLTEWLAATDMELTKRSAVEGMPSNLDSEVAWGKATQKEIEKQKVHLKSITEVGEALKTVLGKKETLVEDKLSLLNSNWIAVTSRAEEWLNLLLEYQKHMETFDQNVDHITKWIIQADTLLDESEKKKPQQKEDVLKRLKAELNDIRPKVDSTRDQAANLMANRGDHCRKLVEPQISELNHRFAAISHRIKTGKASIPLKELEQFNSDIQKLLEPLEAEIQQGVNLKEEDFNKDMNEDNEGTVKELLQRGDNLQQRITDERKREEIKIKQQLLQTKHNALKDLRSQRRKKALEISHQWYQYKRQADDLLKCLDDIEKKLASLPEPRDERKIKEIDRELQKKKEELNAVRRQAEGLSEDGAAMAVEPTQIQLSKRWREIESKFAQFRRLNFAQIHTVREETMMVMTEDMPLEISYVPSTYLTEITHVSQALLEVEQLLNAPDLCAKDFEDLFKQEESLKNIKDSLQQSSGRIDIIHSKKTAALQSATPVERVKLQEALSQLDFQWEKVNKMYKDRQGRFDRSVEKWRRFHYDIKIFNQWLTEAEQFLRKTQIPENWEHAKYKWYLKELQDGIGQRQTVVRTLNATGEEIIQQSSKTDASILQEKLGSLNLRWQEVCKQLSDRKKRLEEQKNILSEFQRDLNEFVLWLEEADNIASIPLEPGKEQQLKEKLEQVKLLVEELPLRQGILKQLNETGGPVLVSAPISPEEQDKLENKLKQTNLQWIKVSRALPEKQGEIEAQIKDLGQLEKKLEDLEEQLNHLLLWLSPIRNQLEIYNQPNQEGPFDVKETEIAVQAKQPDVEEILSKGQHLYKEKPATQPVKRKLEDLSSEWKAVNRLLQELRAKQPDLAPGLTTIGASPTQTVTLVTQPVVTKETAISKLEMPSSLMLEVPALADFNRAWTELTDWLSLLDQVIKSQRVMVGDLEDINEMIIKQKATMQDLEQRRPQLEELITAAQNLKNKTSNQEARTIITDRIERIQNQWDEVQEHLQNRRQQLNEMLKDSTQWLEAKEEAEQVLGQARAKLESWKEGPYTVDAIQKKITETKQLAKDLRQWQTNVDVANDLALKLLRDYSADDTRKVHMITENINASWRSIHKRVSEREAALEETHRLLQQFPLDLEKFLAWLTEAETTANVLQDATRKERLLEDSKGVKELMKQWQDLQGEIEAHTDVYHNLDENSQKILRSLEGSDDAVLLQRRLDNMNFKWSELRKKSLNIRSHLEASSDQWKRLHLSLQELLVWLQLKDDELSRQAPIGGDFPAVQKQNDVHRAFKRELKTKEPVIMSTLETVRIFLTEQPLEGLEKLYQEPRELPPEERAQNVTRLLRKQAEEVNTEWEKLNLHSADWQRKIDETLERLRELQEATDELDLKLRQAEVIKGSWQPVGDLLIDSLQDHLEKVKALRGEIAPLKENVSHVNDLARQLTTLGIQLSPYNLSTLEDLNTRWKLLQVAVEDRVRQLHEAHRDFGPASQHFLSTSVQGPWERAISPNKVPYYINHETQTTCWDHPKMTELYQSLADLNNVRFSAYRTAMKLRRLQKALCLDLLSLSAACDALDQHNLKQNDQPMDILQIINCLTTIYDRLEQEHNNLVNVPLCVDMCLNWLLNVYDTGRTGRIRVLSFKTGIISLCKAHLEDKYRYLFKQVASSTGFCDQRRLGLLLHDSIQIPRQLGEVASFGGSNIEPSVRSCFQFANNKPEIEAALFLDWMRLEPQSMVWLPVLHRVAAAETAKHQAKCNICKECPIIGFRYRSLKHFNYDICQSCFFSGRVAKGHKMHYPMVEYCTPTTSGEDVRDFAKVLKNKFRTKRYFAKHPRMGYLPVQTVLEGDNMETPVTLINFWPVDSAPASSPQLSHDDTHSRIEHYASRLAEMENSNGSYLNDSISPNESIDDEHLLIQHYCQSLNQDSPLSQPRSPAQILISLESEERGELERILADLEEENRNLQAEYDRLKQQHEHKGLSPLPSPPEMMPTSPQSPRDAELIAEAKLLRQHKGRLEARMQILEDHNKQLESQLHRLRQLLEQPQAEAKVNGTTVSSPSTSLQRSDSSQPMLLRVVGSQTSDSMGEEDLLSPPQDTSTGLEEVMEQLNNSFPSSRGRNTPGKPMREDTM
# The list shows a part of the results. The list holds hits alone, and they repeat only in part.
# B1: ATG9A (peptide)
# chain: MELVVKVDRGRW
# B2: WBP1L (peptide)
# chain: MLIPRP
# B3: MYPN (peptide)
# chain: MDGYSLFPRA
# B4: TMEM71 (peptide)
# chain: MCVGICEKKRICEV
# B5: PDE4DIP (peptide)
# chain: MFLG
# B6: FAM110B (peptide)
# chain: MKATVAVNEL
# B7: DMPK (peptide)
# chain: MQPGLQGLDRGCQAL
# B8: AFF4 (peptide)
# chain: MERCGAYACSV
# B9: NNMT (peptide)
# chain: MEGMLLA
# Key:
# Assay in all cases: PRISMA enrichment of interactor (LFQ) in peptide spot vs all other peptide spots (log2 fold change); higher = stronger / more specific binding of the interactor to the peptide
# CHMP2A, O43633 = biological target: CHMP2A, O43633
# Description: (§1)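 PRISMA: 221 full-length sORF-encoded peptides (3-15 aa), plus SOS1/GLUT1 control peptides, were spot-synthesized on cellulose membranes in triplicate. Membranes were incubated with HEK293T lysate, and bound proteins were identified by LC-MS/MS with LFQ. Enrichment is the log2 fold change versus all other peptide spots; only significant interactors are listed (cutoff c=6, x0=2.8).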
# MARK2, Q7KZI7 = biological target: MARK2, Q7KZI7
# Description: as §1
# DPYSL3, Q14195 = biological target: DPYSL3, Q14195
# Description: as §1
# STAG2, Q8N3U4 = biological target: STAG2, Q8N3U4
# Description: as §1
# COA7, Q96BR5 = biological target: COA7, Q96BR5
# Description: as §1
# STT3B, Q8TCJ2 = biological target: STT3B, Q8TCJ2
# Description: as §1
# TTLL11, Q8NHH1 = biological target: TTLL11, Q8NHH1
# Description: as §1
# DECR2, Q9NUI1 = biological target: DECR2, Q9NUI1
# Description: as §1
# KLF16, Q9BXK1 = biological target: KLF16, Q9BXK1
# Description: as §1
# RAP2B, P61225 = biological target: RAP2B, P61225
# Description: as §1
# SCD, O00767 = biological target: SCD, O00767
# Description: as §1
# SF3B4, Q15427 = biological target: SF3B4, Q15427
# Description: as §1
# TTLL12, Q14166 = biological target: TTLL12, Q14166
# Description: as §1
# NUTF2, P61970 = biological target: NUTF2, P61970
# Description: as §1
# NXF1, Q9UBU9 = biological target: NXF1, Q9UBU9
# Description: as §1
# PDCD6, O75340 = biological target: PDCD6, O75340
# Description: as §1
# SLC25A17, O43808 = biological target: SLC25A17, O43808
# Description: as §1
# CDC23, Q9UJX2 = biological target: CDC23, Q9UJX2
# Description: as §1
# COQ9, O75208 = biological target: COQ9, O75208
# Description: as §1
# CPOX, P36551 = biological target: CPOX, P36551
# Description: as §1
# FABP5, Q01469 = biological target: FABP5, Q01469
# Description: as §1
# NCAPG, Q9BPX3 = biological target: NCAPG, Q9BPX3
# Description: as §1
# DYNLL1, P63167 = biological target: DYNLL1, P63167
# Description: as §1
# MCM2, P49736 = biological target: MCM2, P49736
# Description: as §1
# NCDN, Q9UBB6 = biological target: NCDN, Q9UBB6
# Description: as §1
# NUP85, Q9BW27 = biological target: NUP85, Q9BW27
# Description: as §1
# DNAJC10, Q8IXB1 = biological target: DNAJC10, Q8IXB1
# Description: as §1
# HIRIP3, Q9BW71 = biological target: HIRIP3, Q9BW71
# Description: as §1
# POLDIP2, Q9Y2S7 = biological target: POLDIP2, Q9Y2S7
# Description: as §1
# DMD, P11532 = biological target: DMD, P11532
# Description: as §1
# LTF, P02788 = biological target: LTF, P02788
# Description: as §1
# MEMO1, Q9Y316 = biological target: MEMO1, Q9Y316
# Description: as §1
binder,measurement,setting,value
B1,PRISMA enrichment of interactor (log2),"CHMP2A, O43633",7.57
same,PRISMA enrichment of interactor (log2),"MARK2, Q7KZI7",4.44
B2,PRISMA enrichment of interactor (log2),"DPYSL3, Q14195",4.87
same,PRISMA enrichment of interactor (log2),"STAG2, Q8N3U4",4.65
B3,PRISMA enrichment of interactor (log2),"COA7, Q96BR5",7.35
same,PRISMA enrichment of interactor (log2),"STT3B, Q8TCJ2",4.72
same,PRISMA enrichment of interactor (log2),"TTLL11, Q8NHH1",7.08
B4,PRISMA enrichment of interactor (log2),"DECR2, Q9NUI1",4.53
same,PRISMA enrichment of interactor (log2),"KLF16, Q9BXK1",3.93
same,PRISMA enrichment of interactor (log2),"RAP2B, P61225",4.48
same,PRISMA enrichment of interactor (log2),"SCD, O00767",5.02
same,PRISMA enrichment of interactor (log2),"SF3B4, Q15427",6.07
same,PRISMA enrichment of interactor (log2),"TTLL12, Q14166",4.41
B5,PRISMA enrichment of interactor (log2),"COA7, Q96BR5",5.97
same,PRISMA enrichment of interactor (log2),"NUTF2, P61970",7.01
same,PRISMA enrichment of interactor (log2),"NXF1, Q9UBU9",5.62
same,PRISMA enrichment of interactor (log2),"PDCD6, O75340",5.91
same,PRISMA enrichment of interactor (log2),"SLC25A17, O43808",4.58
B6,PRISMA enrichment of interactor (log2),"CDC23, Q9UJX2",4.01
same,PRISMA enrichment of interactor (log2),"COQ9, O75208",6.61
same,PRISMA enrichment of interactor (log2),"CPOX, P36551",4.16
same,PRISMA enrichment of interactor (log2),"FABP5, Q01469",4.58
same,PRISMA enrichment of interactor (log2),"NCAPG, Q9BPX3",5.29
B7,PRISMA enrichment of interactor (log2),"DYNLL1, P63167",4.65
same,PRISMA enrichment of interactor (log2),"MCM2, P49736",4.91
same,PRISMA enrichment of interactor (log2),"NCDN, Q9UBB6",5.39
same,PRISMA enrichment of interactor (log2),"NUP85, Q9BW27",5.64
B8,PRISMA enrichment of interactor (log2),"DNAJC10, Q8IXB1",6.61
same,PRISMA enrichment of interactor (log2),"HIRIP3, Q9BW71",5.24
same,PRISMA enrichment of interactor (log2),"POLDIP2, Q9Y2S7",7.33
B9,PRISMA enrichment of interactor (log2),"DMD, P11532",8.77
same,PRISMA enrichment of interactor (log2),"LTF, P02788",6.31
same,PRISMA enrichment of interactor (log2),"MEMO1, Q9Y316",5.93

# Reformatted bar-delimited: entries from further up.
binder | measurement | setting | value
B5 | PRISMA enrichment of interactor (log2) | COA7, Q96BR5 | 5.97
same | PRISMA enrichment of interactor (log2) | NUTF2, P61970 | 7.01
